In paper doi:10.1101/2022.02.18.480778 one finds binding data, which are given here for one substance.

The target in this experiment is Shiftless (SHFL, C19ORF66), endogenous in iSLK.WT cells (human (endogenous in iSLK.WT)) (UniProt Q9NUL5). The experiment can be described thus: affinity purification with mass spectrometry.

Results are given in words; binding and its absence hold for the method and conditions named. Binding seen in cells or lysates may run through a third protein. These calls come from enrichment with a bait or labelling near it, and not all partners need be listed.

As for “KSHV ORF57, viral protein in iSLK.WT cells (from UniProt Q2HR75 1-455)”, the binding result was “binds”.
